Test results as given in PubChem BioAssay AID2685 (National Center for Advancing Translational Sciences (NCATS), 2010).
Some of the results follow. Further columns of the screen follow, without active or inactive calls. Compounds called inactive in the main read-out are mostly missing here. The note in brackets gives the kind of curve behind each potency; many fits are weak.

Assay: qHTS Assay for Lipid Storage Modulators in Drosophila S3 Cells;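 on cell number change: cells counted by Cell Tracker Red CMTPX staining in the red channel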
Settings: BODIPY lipid droplet fluorescence, 18-24 h; for cell number change: measured here: cell count max response, cells fed with added oleic acid
In short: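 Drosophila S3 cells loaded with oleic acid (400 uM, as added) and compounds at several concentrations; lipid droplets imaged by 488-nm laser-scanning cytometry, 500–530 nm intensity and object ratio to cell channel. Percent activity normalized to 20 uM Triacsin C.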

[1] = measured here: cell number channel AC50, cells fed with added oleic acid
[2] = measured here: lipid fluorescence (Fed channel) AC50, cells fed with added oleic acid

Row | Structure (SMILES) | cell number change | AC50 [1] | AC50 [2]
1 | CC(C(=O)NC1C=CS(=O)(=O)C1)N1C(=O)/C(=C/c2cccc(Cl)c2)SC1=S (stereo not given) | -46.5% | 29.1 µM [falling, single point] | 29.1 µM [falling, single point]
2 | CC(C)c1ccc(NC(=O)c2n[nH]c(=O)c3ccccc23)cc1 | -25.5% | 1.03 µM [falling, full curve, poor fit] | 1.16 µM [falling, full curve, poor fit]
3 | Cn1c(=O)c2c(nc(NCc3ccco3)n2Cc2ccc(Cl)cc2Cl)n(C)c1=O | -3.07% | – | 0.0651 µM [rising, partial curve, poor fit]
4 | Cc1ccc(CN(C)C(=O)CCc2nc3sc4c(c3c(=O)[nH]2)CCCC4)o1 | 0.99% | 0.103 µM [rising, full curve, poor fit] | –
5 | CC1=CC(C)(C)N2C(=O)C(=O)c3cc(OC(=O)c4ccco4)cc1c32 | -51.1% | 23.1 µM [falling, partial curve, poor fit] | –
6 | Cc1ccc(CNCCNCCO)s1 | 39% | 29.1 µM [rising, partial curve] | –
7 | O=C(CSc1ccccn1)Nc1ccc2[nH]c(=O)[nH]c2c1 | -12.9% | – | 29.1 µM [falling, single point]
8 | Cc1csc(N(C(=O)CCNC(=O)c2ccc([N+](=O)[O-])cc2)c2ccccc2)n1 | 16% | – | 9.2 µM [falling, partial curve]
9 | CN=C1SC(C(=O)O)CC(=O)N1C (stereo not given) | -1.96% | – | –
10 | O=C(Nc1ccccc1N1CCCC1)c1ccc(F)c(S(=O)(=O)N2CCOCC2)c1 | 2.09% | – | 3.26 µM [falling, full curve]
11 | COc1ccc(N(CC(=O)NCc2cccs2)S(=O)(=O)c2cccc(C)c2)cc1 | 122% | 13 µM [rising, partial curve] | –
12 | O=S(=O)(c1ccc2c(c1)CCC2)N1CCNCC1 | -4.18% | – | 0.231 µM [rising, full curve]
13 | CC1CC(N(C(=O)C2CC2)c2ccccc2)c2ccccc2N1C(=O)C1CC1 (stereo not given) | 8.67% | – | 0.184 µM [falling, full curve, poor fit]
14 | CCn1ncc(/C=N\NC(=O)c2csc3ccccc23)c1C | -6.19% | – | 0.116 µM [falling, full curve, poor fit]
15 | CN(CC(=O)N1CCc2ccccc2C1)c1ccccc1 | 33.4% | – | 29.1 µM [rising, single point]
16 | CC1=C(C(=O)Nc2ccccc2C(F)(F)F)C(c2sccc2C)NC(=S)N1 (stereo not given) | – | 2.06 µM [falling, partial curve, poor fit] | –
17 | O=S(=O)(NCc1ccc(Cl)cc1)c1cnc[nH]1 | – | – | 0.731 µM [rising, single point]
18 | CC(C)N(C(=O)CSc1nnc(CSc2ncccn2)n1C)C(C)C | -8.11% | – | 0.00517 µM [falling, full curve, poor fit]
19 | CCOC(=O)C1CCN(C(=O)c2cc3cc4ccc(OC)cc4nc3o2)CC1 | 7.96% | – | 1.84 µM [rising, partial curve]
20 | Cc1cc(OC(=O)c2ccccc2C(F)(F)F)c([N+](=O)[O-])c(=O)[nH]1 | 24% | – | 29.1 µM [rising, single point]

Row | Structure (SMILES) | cell number change | AC50 [1] | AC50 [2]
21 | O=C(NCc1ccccn1)c1c(O)c2cccc3c2n(c1=O)CC3 | 23.9% | 0.0731 µM [rising, full curve, poor fit] | 1.64 µM [rising, full curve, poor fit]
22 | COc1ccc(S(=O)(=O)N2CCN(C(=O)c3ccc(NC(C)=O)cc3)CC2)cc1 | 23.7% | – | 20.6 µM [rising, single point]
23 | COc1ccc(-n2cnc3cc(NS(=O)(=O)c4ccc(C)cc4)ccc32)cc1 | – | 3.26 µM [rising, partial curve] | 2.91 µM [rising, partial curve]
24 | Nc1ccc2c(c1)-c1ccccc1S(=O)(=O)N2 | -3.11% | – | –
25 | O=C(NCC1CCCN(C2Cc3ccccc3C2)C1)c1cccs1 (stereo not given) | -0.885% | – | –
26 | O=C(COC(=O)c1cc(=O)[nH]c2ccccc12)c1ccccc1 | -6.33% | 0.00461 µM [falling, full curve, poor fit] | 2.31 µM [falling, partial curve]
27 | COc1ccc(N2CCN(C(=O)CSc3nc(C)cs3)CC2)cc1 | – | 3.66 µM [rising, partial curve] | –
28 | Cc1ccc2nc(/C(C#N)=C\c3ccc(N4CCCCC4)c([N+](=O)[O-])c3)[nH]c2c1 | -31.9% | 18.4 µM [falling, single point] | 6.51 µM [rising, single point]
29 | COc1ccc(CC(=O)Nc2cccc(S(=O)(=O)N3CCCCCC3)c2)cc1OC | – | – | 23.1 µM [falling, partial curve]
30 | Fc1ccc(Nc2c3c(nc4ccccc24)CCC3)cc1 | – | 6.51 µM [rising, single point] | –
31 | Nc1c(C(=O)Nc2ccc3c(c2)OCCO3)nnn1Cc1cccc(Br)c1 | -25% | 0.0058 µM [falling, full curve, poor fit] | –
32 | CC(C)(C)c1cc(CCC(=O)NCc2cccnc2)cc(C(C)(C)C)c1O | 11.4% | – | 29.1 µM [rising, single point]
33 | COc1ccc(CNc2nc3ccccc3n2C(C)C)c(O)c1 | -15.5% | – | 6.51 µM [rising, single point]
34 | O=C(CC12CC3CC(CC(C3)C1)C2)NC(=S)NCc1ccco1 | -38.8% | – | –
35 | O=C(CNC(=O)c1cccc(Br)c1)N/N=C/c1cn[nH]c1-c1ccccc1 | 9.1% | – | 29.1 µM [rising, single point]
36 | CCOc1c(Br)cc(CNCc2cccs2)cc1OC | -29.7% | – | 16.4 µM [falling, single point]
37 | CCc1[nH]nc2c1C(c1ccncc1)C(C#N)=C(N)O2 (stereo not given) | – | 2.06 µM [rising, partial curve, poor fit] | –
38 | COc1ccc(OC)c(S(=O)(=O)n2cnc3cc(C)c(C)cc32)c1 | 4.3% | – | 0.103 µM [rising, full curve, poor fit]
39 | COc1ccc(OC)c(-c2csc3nnc(SCC(=O)Nc4ccc(NC(C)=O)cc4)n23)c1 | -3.74% | 0.184 µM [rising, full curve, poor fit] | –
40 | Cc1cccnc1NC(=O)Nc1cccc(C(F)(F)F)c1 | – | 0.116 µM [rising, full curve, poor fit] | 0.116 µM [rising, full curve, poor fit]

Row | Structure (SMILES) | cell number change | AC50 [1] | AC50 [2]
41 | COc1ccc(-n2c(SCC(=O)NNC(=O)c3ccc(C)cc3)nnc2-c2ccncc2)cc1 | 19.8% | – | 4.11 µM [rising, partial curve, poor fit]
42 | CCc1nc2oc3cc(OC)ccc3c(=O)c2c(=O)n1Cc1ccco1 | -5.32% | – | 0.13 µM [falling, full curve, poor fit]
43 | C=C(C)C(=O)OCC(O)COc1ccc(C(C)(C)c2ccc(OCC(O)COC(=O)C(=C)C)cc2)cc1 (stereo not given) | 15.4% | – | 29.1 µM [rising, single point]
44 | Cn1ncc2c(Nc3cccc4ccccc34)ncnc21 | – | 1.64 µM [rising, partial curve, poor fit] | 0.231 µM [rising, full curve]
45 | COc1ccc(NC(=S)NNC(=S)Nc2cccc(C(F)(F)F)c2)cc1 | -33% | 20.6 µM [falling, single point] | 20.6 µM [falling, single point]
46 | CN(C(=O)CSc1nnc(Cc2cccc3ccccc23)n1N)C1CCS(=O)(=O)C1 (stereo not given) | 10.3% | – | 6.51 µM [rising, single point]
47 | O=C(COc1ccccc1)Nc1ccc2c(c1)nc1n2CCOC1 | 3.79% | – | 29.1 µM [rising, single point]
48 | COc1ccc(Cn2c(-c3ccc(Cl)cc3)c[n+]3ccccc23)cc1 | 7.24% | – | 1.84 µM [rising, partial curve]
49 | COc1ccc(-c2nc(-c3ccc4c(c3)OCO4)[nH]c2-c2ccc(OC)cc2)cc1 | -21.2% | – | 0.00517 µM [rising, full curve, poor fit]
50 | O=C(NC(Cc1ccccc1)C(=O)O)/C(=C\c1ccc(F)cc1)NC(=O)c1ccco1 (stereo not given) | 7.92% | – | –
51 | O=[N+]([O-])c1ccc(OCCO)nc1 | -14% | – | –
52 | COC(=O)C/C(O)=C(/N=Nc1cccc(C(F)(F)F)c1)C(=O)OC | – | 6.51 µM [falling, single point] | –
53 | CCCCC(=O)Nc1ccc(C(=O)NCCc2ccc(S(N)(=O)=O)cc2)cc1 | 8.1% | 0.146 µM [rising, full curve, poor fit] | –
54 | COc1ccccc1C1CCN(Cc2ccc3ccccc3c2)CC1 | -56.9% | 29.1 µM [falling, single point] | 29.1 µM [falling, single point]
55 | O=S(=O)(c1ccccc1)N1CCN(Cc2cccc(Cl)c2)CC1 | 16.1% | – | –
56 | Cc1cc(=O)oc2cc(OCc3ccc(C(=O)OCC(=O)Nc4ccc(N(C)C)cc4)cc3)ccc12 | -51.3% | 1.03 µM [falling, full curve] | –
57 | O=C(c1cc(-c2ccc(Br)cc2)nc2ccccc12)N1CCN(c2ccccc2O)CC1 | – | 0.58 µM [falling, single point] | –
58 | CC(NC(=O)Nc1ccc(Cl)cc1)c1ccccc1 (stereo not given) | -1.4% | – | 16.4 µM [falling, single point]
59 | COc1cccc(N=Cc2c(O)c3ccccc3oc2=O)c1 | 3.59% | – | 29.1 µM [falling, single point]

One compound at a time (already shown). Order of values: cell number change	AC50 [1]	AC50 [2]
CN(C(=O)CSc1nnc(Cc2cccc3ccccc23)n1N)C1CCS(=O)(=O)C1 (stereo not given) is entered as 10.3%	–	6.51 µM [rising, single point]
O=S(=O)(c1ccccc1)N1CCN(Cc2cccc(Cl)c2)CC1 is entered as 16.1%	–	–
COC(=O)C/C(O)=C(/N=Nc1cccc(C(F)(F)F)c1)C(=O)OC is entered as –	6.51 µM [falling, single point]	–
